Test results published in paper PMC4357696.
No constants are given. Whether binding was seen depends on the method and setting. Some entries that bind do so weakly or less than the wild type. Tags and fused reporters may be left off the sequences shown.

Protein sequences, listed by entry. Tags and fused reporters are not part of them.
UniProt P15873: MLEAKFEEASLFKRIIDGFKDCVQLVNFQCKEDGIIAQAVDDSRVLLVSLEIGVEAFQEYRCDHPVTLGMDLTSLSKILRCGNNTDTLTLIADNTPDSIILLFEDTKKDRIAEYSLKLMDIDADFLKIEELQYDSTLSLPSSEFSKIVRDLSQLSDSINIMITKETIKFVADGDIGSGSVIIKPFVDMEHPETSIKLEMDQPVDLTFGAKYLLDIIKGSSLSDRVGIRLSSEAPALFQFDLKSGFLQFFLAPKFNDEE

Experiments:
[1] = target: T1, Rad5 N-terminal domain (1-393 a.a.), Gal4 DNA-binding domain fusion (pGBT9-rad5-1-393 a.a., p448) (budding yeast) (UniProt P32849); assay: two-hybrid; yeast two-hybrid, Gal4 AD and BD fusions expressed from high-copy-number plasmids (2μ-based); also the Rad5 deletion constructs in pGBT9
T1 sequence: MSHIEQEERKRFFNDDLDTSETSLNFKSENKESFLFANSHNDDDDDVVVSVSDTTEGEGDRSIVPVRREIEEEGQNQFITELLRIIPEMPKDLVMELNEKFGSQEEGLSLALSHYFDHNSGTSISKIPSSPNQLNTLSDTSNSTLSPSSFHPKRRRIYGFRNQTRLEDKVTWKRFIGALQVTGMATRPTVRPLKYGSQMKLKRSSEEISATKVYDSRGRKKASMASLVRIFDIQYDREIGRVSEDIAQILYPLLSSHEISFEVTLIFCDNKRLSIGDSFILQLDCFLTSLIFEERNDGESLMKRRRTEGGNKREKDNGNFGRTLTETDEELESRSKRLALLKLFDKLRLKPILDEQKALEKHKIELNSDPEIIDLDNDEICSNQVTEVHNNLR

[2] = target: T2, rad5-AA (D681A, E682A), Gal4 DNA-binding domain fusion (pGBT9-rad5-AA, p404) (budding yeast) (UniProt P32849); assay: as above
T2 sequence: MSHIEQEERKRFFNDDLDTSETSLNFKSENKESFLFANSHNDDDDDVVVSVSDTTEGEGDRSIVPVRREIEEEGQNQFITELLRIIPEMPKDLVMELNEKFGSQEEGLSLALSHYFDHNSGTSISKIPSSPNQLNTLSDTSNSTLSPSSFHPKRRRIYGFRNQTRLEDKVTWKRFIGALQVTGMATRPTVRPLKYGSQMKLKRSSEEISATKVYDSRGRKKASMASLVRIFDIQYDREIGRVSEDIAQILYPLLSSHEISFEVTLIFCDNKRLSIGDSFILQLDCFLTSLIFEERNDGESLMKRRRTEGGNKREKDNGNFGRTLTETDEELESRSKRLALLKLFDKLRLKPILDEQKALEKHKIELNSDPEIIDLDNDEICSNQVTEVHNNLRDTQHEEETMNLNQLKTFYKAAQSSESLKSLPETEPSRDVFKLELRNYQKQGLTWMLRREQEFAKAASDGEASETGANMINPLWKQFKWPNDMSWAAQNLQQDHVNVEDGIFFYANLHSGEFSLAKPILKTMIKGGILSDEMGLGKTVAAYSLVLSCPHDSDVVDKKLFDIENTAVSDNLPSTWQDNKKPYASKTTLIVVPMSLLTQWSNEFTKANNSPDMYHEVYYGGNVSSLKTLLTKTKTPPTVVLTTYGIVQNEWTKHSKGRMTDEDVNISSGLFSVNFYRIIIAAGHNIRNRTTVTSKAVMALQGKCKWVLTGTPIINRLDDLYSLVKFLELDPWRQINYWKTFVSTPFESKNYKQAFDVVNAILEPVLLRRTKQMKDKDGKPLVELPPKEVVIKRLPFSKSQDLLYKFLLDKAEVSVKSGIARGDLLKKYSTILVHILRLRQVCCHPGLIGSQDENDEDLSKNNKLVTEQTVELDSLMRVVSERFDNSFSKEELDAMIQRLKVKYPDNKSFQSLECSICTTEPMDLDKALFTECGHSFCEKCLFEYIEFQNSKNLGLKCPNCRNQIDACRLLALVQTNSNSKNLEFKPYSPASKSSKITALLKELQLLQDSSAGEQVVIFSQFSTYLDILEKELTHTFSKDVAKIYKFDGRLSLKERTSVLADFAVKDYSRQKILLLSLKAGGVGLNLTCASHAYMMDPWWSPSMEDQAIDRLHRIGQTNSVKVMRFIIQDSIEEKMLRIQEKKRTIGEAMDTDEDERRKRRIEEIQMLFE

binding [1]: binds | binding [2]: binds
Substance: PCNA, Gal4 activation domain fusion (pGAD424-POL30, p343) (from UniProt P15873 1-258)
